Laboratory results taken from paper PMC12271568.
No constants are given. Whether binding was seen depends on the method and setting. Binding seen in cells or lysates may run through a third protein. Some results given as binding are weak or reduced against the parent protein; the word gives no strength.

Sequences of proteins named here, by UniProt entry; tags and fusion partners are left off. A change or cut given only in a name is not applied to a line headed by its entry. Residues count along the entry.
UniProt O15455: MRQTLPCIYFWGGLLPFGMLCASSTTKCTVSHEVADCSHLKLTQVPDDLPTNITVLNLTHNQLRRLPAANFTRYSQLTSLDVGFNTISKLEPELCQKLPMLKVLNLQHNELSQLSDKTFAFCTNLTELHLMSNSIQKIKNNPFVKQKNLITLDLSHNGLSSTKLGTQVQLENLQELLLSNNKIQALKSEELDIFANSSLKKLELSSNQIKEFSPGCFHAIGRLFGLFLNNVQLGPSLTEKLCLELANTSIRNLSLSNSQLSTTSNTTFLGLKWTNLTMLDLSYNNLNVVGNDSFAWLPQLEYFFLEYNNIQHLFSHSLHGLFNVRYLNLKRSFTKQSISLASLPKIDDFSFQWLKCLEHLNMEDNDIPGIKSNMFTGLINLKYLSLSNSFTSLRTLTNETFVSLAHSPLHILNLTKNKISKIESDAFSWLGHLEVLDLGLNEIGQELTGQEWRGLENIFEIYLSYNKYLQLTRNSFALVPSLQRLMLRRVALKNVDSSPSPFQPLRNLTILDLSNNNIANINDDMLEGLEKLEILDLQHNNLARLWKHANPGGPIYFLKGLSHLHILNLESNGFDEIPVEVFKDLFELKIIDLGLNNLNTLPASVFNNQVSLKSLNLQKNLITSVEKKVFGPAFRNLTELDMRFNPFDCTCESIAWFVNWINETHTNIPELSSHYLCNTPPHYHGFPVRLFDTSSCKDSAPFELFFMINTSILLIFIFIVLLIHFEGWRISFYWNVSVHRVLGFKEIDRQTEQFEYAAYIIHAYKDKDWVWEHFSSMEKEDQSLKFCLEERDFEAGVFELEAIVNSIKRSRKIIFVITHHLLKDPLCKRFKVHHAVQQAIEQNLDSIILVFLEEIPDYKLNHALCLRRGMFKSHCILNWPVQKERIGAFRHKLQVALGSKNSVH
Flag-TLR3 (Toll-like receptor 3): residues 24-904 of O15455
TLR3-His (24-702aa): residues 24-702 of O15455
UniProt O14744: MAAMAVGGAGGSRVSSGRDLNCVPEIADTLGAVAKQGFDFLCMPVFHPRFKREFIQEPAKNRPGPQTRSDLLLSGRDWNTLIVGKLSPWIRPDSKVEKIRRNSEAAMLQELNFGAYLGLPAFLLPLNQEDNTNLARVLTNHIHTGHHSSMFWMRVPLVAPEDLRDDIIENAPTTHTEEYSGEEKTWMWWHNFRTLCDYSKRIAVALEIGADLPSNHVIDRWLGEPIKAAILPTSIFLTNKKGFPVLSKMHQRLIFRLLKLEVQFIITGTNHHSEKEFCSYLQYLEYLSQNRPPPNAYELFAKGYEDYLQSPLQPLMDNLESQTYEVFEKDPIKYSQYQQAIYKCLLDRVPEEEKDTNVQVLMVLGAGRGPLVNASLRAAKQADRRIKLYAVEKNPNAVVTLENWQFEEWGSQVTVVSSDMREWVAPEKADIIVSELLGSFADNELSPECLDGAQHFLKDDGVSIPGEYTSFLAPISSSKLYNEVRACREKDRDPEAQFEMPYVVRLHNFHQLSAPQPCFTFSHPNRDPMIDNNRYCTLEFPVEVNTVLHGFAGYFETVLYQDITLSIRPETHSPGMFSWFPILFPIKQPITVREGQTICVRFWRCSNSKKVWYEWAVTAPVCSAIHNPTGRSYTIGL
UniProt P52294: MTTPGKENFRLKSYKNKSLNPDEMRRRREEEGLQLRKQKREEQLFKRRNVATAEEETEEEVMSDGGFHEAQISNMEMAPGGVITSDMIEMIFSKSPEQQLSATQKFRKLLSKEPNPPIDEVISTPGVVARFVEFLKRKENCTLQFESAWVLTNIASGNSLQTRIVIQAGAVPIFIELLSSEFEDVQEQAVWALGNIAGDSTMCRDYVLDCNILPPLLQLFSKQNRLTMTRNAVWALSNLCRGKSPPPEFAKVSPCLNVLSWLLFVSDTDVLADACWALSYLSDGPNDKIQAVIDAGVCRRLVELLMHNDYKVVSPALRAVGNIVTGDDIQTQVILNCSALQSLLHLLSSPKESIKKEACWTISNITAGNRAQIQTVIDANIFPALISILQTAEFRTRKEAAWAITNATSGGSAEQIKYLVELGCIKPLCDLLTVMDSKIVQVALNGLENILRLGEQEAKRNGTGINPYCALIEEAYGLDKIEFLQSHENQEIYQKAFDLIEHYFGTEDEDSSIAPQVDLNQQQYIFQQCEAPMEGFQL

Tests used:
[1] = molecular target: TLR3-His (24-702aa) (UniProt O15455); test: pull-down; PRMT5-Flag binding to purified His control and TLR3-His (24-702aa); immunoblot with Flag-tag and His-tag antibodies; whether PRMT5-Flag was purified is not told
[2] = molecular target: Flag-TLR3 (Toll-like receptor 3) (UniProt O15455); test: co-IP; Co-IP of TLR3 and importin α5 (Supplementary Fig. 3h); cells and conditions not given
[3] = molecular target: Flag-TLR3 (Toll-like receptor 3) (UniProt O15455); test: co-IP; immunoprecipitation and immunoblot of TLR3 and PRMT5; cytosol and nucleus of TLR3-overexpressing Panc1 cells, and WT and TLR3-overexpressing Panc1 cells, treated with GEM (50 μM) for 24 h; also A549 cells

Substance: PRMT5-Flag (from UniProt O14744 1-637)
- binding [1]: binds

Substance: importin α5 (from UniProt P52294 1-538)
- binding [2]: binds

Substance: protein arginine methyltransferase 5 (PRMT5) (from UniProt O14744 1-637)
- binding [3]: binds
